From paper PMC9606255
These are yes or no findings as the source states them, for the method shown. In cells and extracts the contact can be indirect. Some results given as binding are weak or reduced against the parent protein; the word gives no strength.

Sequences of proteins named here, by UniProt entry; tags and fusion partners are left off.
UniProt Q9C0C2: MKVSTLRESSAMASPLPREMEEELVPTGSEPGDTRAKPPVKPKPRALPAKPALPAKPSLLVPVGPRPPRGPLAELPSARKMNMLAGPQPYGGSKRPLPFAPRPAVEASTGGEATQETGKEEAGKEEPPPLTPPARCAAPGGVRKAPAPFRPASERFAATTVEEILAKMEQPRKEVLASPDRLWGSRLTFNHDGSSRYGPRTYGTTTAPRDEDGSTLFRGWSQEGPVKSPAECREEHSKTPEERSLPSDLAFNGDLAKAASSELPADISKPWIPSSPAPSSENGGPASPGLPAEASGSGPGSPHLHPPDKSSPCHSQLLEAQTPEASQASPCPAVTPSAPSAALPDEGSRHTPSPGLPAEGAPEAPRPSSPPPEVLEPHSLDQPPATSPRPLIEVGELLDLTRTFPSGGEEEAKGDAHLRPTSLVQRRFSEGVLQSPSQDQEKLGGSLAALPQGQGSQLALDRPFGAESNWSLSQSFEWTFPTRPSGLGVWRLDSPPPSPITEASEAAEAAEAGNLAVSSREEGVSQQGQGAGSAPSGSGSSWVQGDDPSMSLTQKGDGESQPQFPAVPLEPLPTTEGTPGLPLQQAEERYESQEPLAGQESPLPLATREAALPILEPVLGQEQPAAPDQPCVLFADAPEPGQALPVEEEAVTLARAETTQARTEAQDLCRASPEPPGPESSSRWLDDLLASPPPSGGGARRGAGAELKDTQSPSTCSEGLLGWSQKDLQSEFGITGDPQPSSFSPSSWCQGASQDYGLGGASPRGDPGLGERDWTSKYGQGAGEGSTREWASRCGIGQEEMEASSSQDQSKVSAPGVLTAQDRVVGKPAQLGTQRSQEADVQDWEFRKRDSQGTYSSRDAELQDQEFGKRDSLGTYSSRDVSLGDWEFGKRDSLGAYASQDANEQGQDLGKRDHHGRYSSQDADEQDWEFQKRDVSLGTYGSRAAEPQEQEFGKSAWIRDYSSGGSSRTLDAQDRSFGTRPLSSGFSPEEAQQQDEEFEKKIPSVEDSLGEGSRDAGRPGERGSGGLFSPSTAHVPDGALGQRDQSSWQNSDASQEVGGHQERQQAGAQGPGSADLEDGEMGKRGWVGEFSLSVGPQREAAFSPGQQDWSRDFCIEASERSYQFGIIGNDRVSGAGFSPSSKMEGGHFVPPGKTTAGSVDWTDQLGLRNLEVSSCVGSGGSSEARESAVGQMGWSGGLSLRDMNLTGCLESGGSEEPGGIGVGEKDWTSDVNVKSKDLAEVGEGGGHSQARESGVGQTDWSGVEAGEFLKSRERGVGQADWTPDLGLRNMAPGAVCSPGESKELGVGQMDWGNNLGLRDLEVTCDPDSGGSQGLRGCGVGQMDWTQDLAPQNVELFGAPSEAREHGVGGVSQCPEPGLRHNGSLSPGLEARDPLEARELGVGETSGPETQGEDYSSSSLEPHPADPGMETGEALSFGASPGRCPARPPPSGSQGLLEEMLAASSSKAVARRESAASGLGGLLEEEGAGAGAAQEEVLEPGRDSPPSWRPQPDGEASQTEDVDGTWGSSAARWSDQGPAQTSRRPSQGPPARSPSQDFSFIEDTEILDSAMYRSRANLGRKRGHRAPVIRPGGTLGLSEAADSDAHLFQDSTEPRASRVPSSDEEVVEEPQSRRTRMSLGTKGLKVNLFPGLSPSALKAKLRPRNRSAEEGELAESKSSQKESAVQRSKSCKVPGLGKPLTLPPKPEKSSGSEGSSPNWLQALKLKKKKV
UniProt P35222: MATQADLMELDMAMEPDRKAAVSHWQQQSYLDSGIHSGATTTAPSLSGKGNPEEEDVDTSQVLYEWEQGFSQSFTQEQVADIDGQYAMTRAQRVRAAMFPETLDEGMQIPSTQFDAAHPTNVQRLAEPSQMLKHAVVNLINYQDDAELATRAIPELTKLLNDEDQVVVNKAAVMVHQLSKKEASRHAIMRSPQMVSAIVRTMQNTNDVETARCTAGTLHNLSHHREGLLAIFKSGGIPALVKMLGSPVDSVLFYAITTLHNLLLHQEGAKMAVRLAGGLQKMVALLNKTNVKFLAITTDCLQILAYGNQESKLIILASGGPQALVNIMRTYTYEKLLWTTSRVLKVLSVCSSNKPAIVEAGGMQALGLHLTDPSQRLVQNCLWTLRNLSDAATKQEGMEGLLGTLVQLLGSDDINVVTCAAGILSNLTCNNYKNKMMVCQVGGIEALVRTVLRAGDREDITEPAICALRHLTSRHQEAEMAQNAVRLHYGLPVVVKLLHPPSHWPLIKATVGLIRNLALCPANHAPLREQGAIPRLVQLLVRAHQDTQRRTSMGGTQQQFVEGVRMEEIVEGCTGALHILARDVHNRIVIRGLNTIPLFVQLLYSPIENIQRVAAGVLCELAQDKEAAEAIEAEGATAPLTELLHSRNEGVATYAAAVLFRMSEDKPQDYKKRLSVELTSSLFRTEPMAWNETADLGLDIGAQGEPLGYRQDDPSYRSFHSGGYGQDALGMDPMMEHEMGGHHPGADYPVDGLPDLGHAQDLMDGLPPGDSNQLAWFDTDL

Assays:
[1] = molecular target: TAB182 (human (endogenous in TE-10 and KYSE-150)) (UniProt Q9C0C2); test: co-IP; ESCC cell lysates (M-PER buffer) incubated with TAB182, FHL2 or β-catenin antibodies at 4 °C overnight, protein G beads, washed four times with 0.1% Triton-PBS, western blot; also in cells with TAB182 knocked down, over-expressed or expressing TAB182-Δ1
[2] = molecular target: TAB182 (human (endogenous in TE-10 and KYSE-150)) (UniProt Q9C0C2); test: co-IP; HEK293T cells, co-IP of TAB182, FHL2 and β-catenin (Fig. S2A)
[3] = molecular target: TAB182 (human (endogenous in TE-10 and KYSE-150)) (UniProt Q9C0C2); test: co-IP; ESCC cell lysates (M-PER buffer) incubated with TAB182, FHL2 or β-catenin antibodies at 4 °C overnight, protein G beads, washed four times with 0.1% Triton-PBS, western blot; also in cells with TAB182 knocked down, over-expressed or expressing TAB182-Δ1; remark: listed apart in the source
[4] = molecular target: β-catenin (human (endogenous in TE-10 and KYSE-150)) (UniProt P35222); test: as above
[5] = molecular target: β-catenin (human (endogenous in TE-10 and KYSE-150)) (UniProt P35222); test: co-IP; HEK293T cells, co-IP of TAB182, FHL2 and β-catenin (Fig. S2A)

Measured: binding

β-catenin (from UniProt P35222 1-781)
binds: [1] | [2]

B1: four and a half of LIM-only protein 2 (FHL2) (protein, UniProt Q14192 1-279)
chain: MTERFDCHHCNESLFGKKYILREESPYCVVCFETLFANTCEECGKPIGCDCKDLSYKDRHWHEACFHCSQCRNSLVDKPFAAKEDQLLCTDCYSNEYSSKCQECKKTIMPGTRKMEYKGSSWHETCFICHRCQQPIGTKSFIPKDNQNFCVPCYEKQHAMQCVQCKKPITTGGVTYREQPWHKECFVCTACRKQLSGQRFTARDDFAYCLNCFCDLYAKKCAGCTNPISGLGGTKYISFEERQWHNDCFNCKKCSLSLVGRGFLTERDDILCPDCGKDI
binds: [3] | [4] | [2] | [5]
